These are yes or no findings as the source states them, for the method shown. Binding seen in cells or lysates may run through a third protein. Some results given as binding are weak or reduced against the parent protein; the word gives no strength.

By UniProt entry, the sequences of proteins in these tests, tags left out.
UniProt Q4WN10: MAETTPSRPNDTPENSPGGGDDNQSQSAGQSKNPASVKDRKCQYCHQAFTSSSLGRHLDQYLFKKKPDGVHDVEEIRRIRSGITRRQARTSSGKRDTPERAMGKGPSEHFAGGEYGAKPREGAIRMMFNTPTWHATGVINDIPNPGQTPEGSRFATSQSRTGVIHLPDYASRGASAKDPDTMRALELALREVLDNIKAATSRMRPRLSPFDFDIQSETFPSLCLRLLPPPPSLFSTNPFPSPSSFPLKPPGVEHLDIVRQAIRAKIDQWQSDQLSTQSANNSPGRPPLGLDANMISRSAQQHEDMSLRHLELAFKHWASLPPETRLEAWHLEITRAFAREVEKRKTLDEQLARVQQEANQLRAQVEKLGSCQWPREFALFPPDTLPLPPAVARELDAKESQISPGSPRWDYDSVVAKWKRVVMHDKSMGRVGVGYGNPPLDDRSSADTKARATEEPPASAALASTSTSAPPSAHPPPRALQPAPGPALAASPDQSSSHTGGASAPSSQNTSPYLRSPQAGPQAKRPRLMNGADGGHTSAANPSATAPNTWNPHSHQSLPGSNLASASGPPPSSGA
UniProt Q4WI89: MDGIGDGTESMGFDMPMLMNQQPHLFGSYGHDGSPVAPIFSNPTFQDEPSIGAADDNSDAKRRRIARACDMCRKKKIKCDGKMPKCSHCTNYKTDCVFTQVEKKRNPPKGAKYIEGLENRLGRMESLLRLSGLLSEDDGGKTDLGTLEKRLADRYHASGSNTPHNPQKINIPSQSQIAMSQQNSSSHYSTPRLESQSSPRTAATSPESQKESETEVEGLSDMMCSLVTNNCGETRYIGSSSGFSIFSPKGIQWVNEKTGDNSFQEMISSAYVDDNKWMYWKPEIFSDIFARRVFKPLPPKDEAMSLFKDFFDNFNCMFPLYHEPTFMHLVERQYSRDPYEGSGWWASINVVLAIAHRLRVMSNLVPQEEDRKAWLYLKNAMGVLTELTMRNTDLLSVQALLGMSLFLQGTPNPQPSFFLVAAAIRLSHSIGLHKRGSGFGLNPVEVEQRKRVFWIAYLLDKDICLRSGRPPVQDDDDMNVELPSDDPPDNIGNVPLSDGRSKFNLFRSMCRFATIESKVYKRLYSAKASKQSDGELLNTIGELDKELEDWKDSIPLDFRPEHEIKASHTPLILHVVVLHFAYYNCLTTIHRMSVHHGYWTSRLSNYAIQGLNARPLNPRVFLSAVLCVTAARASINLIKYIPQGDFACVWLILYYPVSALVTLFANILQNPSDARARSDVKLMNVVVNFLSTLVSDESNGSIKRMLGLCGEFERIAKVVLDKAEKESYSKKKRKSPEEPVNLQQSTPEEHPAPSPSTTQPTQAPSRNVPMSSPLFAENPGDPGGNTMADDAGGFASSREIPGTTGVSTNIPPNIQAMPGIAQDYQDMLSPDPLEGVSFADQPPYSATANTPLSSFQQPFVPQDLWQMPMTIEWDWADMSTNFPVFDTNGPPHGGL

These results are taken from publication PMC9769526.

For the assay, the target named is NcaA-3×HA (Aspergillus fumigatus) (UniProt Q4WN10). The assay can be described thus: co-IP; native extracts of hspA-atrR-TAP strains with or without ncaA-3×HA; immunoprecipitation with anti-HA monoclonal antibody and protein G Dynabeads at 4°C, washes W250 and W150; Western blot with anti-AtrR and anti-HA. For orientation: A western blot detects proteins with antibodies after separation by electrophoresis.

As to “AtrR-TAP fusion protein (full-length AtrR fused at its C terminus to the tandem affinity purification moiety) (from UniProt Q4WI89 1-895)”, the binding entry is “binds”.
